PMC4381053
Results are given in words; binding and its absence hold for the method and conditions named. Binding seen in cells or lysates may run through a third protein. A yes stands for co-enrichment or nearness to the bait. Other partners may have been found.

Sequences of proteins named here, by UniProt entry; tags and fusion partners are left off. A change or cut given only in a name is not applied to a line headed by its entry. A line that says so, or that is headed by a name, gives the form on record, which may keep a tag or linker.
UniProt P32639: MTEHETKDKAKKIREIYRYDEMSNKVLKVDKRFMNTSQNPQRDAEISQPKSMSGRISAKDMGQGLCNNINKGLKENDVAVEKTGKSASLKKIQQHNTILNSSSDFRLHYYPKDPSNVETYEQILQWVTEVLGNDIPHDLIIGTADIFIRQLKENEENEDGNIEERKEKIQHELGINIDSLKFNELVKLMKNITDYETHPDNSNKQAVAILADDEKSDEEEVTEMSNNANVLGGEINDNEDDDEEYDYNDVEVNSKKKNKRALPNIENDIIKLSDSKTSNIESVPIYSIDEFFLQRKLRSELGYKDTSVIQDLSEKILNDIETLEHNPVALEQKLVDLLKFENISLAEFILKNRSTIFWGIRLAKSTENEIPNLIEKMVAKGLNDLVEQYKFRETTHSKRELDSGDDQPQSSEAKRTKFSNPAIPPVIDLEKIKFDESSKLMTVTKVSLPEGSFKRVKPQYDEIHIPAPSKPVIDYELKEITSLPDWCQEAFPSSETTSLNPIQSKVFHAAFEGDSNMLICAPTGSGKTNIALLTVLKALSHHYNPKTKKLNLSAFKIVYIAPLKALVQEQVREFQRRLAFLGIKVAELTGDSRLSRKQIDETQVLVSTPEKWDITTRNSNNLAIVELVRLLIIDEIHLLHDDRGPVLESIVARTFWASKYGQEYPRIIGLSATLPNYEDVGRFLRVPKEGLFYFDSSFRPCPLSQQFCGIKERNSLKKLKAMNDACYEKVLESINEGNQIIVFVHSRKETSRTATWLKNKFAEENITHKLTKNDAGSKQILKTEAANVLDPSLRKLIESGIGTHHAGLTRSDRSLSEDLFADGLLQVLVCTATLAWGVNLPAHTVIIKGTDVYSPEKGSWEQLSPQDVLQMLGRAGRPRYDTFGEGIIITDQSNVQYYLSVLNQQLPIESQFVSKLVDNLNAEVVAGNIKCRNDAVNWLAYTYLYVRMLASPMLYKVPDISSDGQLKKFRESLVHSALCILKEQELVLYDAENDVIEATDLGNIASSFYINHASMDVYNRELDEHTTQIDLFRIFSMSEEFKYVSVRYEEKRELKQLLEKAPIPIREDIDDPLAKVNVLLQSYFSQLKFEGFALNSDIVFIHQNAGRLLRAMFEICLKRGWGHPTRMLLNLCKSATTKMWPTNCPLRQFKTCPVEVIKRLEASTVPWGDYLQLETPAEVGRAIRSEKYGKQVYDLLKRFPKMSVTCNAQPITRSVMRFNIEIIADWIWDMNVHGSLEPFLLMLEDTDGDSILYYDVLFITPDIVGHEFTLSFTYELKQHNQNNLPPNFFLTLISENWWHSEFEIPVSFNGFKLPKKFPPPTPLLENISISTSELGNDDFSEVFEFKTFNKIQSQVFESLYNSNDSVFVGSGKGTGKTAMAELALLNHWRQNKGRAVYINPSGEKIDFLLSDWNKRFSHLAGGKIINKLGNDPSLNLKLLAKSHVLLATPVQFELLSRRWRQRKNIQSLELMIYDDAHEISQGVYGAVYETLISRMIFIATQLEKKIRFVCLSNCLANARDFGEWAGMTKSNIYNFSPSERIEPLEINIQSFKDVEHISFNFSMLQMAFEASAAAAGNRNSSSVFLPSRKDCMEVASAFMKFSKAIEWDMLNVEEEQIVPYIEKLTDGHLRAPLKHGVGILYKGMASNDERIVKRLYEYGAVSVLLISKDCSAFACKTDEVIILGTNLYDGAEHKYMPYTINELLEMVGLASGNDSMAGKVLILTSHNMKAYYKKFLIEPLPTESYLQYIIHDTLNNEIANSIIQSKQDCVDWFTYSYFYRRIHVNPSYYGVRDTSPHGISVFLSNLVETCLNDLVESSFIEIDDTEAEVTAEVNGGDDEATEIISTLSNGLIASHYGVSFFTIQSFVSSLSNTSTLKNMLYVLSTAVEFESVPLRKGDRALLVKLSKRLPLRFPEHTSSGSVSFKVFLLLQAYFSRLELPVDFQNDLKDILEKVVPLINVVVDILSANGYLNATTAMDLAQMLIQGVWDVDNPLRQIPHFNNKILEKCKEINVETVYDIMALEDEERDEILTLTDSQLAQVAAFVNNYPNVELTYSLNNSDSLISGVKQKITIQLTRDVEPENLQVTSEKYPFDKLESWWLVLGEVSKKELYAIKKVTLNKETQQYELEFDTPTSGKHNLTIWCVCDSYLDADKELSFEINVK
TAP-tagged Brr2-Δ120 (P32639, form named): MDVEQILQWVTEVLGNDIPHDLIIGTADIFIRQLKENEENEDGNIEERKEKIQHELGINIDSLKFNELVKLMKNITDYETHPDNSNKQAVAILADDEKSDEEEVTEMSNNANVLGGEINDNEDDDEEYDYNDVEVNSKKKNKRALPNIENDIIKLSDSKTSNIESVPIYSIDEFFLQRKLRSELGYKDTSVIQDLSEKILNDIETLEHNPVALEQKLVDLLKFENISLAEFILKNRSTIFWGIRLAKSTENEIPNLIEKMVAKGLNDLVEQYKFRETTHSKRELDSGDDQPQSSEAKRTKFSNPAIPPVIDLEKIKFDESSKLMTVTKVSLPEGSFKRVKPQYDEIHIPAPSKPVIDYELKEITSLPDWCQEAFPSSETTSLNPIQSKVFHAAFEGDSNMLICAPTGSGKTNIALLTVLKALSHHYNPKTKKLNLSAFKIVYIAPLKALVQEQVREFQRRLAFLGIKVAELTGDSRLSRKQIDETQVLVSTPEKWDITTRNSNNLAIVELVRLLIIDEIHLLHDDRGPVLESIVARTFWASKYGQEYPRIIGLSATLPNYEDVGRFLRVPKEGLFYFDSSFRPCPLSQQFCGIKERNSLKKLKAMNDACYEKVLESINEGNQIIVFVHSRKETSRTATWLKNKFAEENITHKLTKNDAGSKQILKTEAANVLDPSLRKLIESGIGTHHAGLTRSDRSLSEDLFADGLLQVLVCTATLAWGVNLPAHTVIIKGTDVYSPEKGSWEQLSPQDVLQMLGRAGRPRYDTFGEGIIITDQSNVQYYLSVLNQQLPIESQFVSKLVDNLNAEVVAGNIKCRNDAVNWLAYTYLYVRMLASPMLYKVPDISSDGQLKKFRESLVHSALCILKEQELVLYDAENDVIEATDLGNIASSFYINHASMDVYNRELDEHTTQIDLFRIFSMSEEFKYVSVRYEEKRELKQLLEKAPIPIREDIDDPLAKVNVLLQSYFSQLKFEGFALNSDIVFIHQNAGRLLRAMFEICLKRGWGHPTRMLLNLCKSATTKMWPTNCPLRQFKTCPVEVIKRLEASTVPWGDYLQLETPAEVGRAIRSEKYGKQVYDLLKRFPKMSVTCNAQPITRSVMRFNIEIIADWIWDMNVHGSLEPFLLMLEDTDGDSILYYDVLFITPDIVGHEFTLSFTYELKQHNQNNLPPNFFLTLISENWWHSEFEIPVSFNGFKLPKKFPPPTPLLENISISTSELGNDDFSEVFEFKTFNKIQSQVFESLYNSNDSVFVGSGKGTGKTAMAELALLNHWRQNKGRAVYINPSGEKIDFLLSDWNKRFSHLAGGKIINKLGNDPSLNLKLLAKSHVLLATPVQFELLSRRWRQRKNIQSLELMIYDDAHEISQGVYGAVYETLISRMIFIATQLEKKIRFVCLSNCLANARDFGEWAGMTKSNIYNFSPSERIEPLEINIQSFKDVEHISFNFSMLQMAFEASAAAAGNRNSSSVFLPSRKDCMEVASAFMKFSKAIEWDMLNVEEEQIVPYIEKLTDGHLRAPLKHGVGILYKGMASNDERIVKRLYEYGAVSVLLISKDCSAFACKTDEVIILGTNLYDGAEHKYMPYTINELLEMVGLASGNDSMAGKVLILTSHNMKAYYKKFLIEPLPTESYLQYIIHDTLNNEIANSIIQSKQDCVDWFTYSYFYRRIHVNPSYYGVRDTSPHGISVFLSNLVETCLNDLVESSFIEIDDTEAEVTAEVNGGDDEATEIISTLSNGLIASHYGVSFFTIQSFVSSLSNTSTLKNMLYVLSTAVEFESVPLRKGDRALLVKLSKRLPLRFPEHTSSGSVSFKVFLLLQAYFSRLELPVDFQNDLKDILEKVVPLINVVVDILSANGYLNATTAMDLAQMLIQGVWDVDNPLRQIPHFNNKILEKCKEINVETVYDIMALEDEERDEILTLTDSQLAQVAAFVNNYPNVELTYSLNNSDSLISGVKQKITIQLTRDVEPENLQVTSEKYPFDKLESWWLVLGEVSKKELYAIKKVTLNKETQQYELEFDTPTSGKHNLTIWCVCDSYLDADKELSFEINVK
UniProt Q12309: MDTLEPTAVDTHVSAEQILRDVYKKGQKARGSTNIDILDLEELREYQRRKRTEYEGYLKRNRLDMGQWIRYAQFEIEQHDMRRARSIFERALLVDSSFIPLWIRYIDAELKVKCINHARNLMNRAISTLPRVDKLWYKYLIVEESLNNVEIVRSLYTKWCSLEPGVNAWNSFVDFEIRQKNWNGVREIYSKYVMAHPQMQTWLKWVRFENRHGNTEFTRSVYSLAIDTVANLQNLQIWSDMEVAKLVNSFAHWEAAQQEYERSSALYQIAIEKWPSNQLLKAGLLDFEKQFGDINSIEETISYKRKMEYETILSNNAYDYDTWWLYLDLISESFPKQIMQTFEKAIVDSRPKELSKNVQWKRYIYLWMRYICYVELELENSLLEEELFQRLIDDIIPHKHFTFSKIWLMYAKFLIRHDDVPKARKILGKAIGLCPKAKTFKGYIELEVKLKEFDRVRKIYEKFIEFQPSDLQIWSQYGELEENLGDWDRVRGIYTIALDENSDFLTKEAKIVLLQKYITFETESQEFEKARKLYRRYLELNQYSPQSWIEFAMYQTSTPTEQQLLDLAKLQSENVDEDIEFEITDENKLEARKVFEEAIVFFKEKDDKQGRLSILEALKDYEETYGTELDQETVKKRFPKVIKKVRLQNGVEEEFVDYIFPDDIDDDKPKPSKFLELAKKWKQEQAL
UniProt P32524: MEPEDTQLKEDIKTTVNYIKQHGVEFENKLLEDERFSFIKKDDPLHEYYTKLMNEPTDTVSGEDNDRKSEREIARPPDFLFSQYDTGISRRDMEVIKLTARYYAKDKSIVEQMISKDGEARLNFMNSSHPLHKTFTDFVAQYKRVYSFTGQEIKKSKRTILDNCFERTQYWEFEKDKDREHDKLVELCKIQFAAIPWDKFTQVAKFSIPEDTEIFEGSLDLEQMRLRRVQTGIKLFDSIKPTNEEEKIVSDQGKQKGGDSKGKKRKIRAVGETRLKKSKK
UniProt P36048: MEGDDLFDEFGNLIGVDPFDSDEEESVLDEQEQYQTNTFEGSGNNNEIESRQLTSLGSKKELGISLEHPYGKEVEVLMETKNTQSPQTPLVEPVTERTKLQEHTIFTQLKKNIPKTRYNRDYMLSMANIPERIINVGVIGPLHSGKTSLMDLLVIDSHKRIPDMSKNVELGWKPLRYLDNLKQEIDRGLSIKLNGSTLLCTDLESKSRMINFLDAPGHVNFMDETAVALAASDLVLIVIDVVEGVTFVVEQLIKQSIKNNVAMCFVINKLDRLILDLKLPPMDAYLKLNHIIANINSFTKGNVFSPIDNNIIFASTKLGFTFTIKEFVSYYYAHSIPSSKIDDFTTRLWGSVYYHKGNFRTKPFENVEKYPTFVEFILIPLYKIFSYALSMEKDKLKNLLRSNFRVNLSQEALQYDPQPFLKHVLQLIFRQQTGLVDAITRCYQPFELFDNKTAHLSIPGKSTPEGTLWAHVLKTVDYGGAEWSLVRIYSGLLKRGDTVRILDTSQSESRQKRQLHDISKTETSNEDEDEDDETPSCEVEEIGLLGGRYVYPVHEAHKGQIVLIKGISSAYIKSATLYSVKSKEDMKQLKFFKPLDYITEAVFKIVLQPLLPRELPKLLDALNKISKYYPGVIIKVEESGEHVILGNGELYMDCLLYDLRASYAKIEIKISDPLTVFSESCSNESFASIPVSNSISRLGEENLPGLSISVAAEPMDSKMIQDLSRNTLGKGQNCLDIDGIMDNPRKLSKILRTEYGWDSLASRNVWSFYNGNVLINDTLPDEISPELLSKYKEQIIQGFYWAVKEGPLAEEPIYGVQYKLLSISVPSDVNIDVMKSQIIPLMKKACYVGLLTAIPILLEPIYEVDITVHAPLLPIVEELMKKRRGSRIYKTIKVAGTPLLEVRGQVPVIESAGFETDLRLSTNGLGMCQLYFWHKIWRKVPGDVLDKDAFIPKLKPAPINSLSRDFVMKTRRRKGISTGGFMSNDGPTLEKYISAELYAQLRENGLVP
UniProt Q00723: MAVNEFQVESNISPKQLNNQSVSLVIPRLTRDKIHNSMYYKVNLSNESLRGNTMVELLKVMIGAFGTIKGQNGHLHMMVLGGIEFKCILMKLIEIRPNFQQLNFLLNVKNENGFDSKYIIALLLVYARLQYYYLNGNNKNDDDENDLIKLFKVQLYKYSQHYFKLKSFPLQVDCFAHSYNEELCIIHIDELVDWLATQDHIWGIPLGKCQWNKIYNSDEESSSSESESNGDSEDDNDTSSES
UniProt P54999: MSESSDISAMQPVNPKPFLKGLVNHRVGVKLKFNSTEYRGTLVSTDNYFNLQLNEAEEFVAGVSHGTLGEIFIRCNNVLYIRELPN

Columns and labels:
[1] = target: TAP-tagged Brr2-Δ120 (S. cerevisiae) (UniProt P32639); test: affinity purification with mass spectrometry; TAP-tagged Brr2 pulled down from yeast extract on IgG resin in YEB (40 mM HEPES pH7.9, 200 mM NaCl, 1.5 mM MgCl2, 0.01% NP40), 4°C, eluted by TEV cleavage, LC-MS/MS; two independent pull down experiments
[2] = target: TAP-tagged Brr2 WT (S. cerevisiae) (UniProt P32639); test: as above

Molecule: HSH155 (from UniProt P49955 1-971)
- binding [1]: binds
- binding [2]: binds

Molecule: PRP19 (from UniProt P32523 1-503)
- binding [1]: binds
- binding [2]: binds

Molecule: CLF1 (from UniProt Q12309 1-687)
- binding [1]: binds
- binding [2]: binds

Molecule: RSE1 (from UniProt Q04693 1-1361)
- binding [1]: binds
- binding [2]: binds

Molecule: PRP21 (from UniProt P32524 1-280)
- binding [1]: binds
- binding [2]: binds

Molecule: SYF1 (from UniProt Q04048 1-859)
- binding [1]: binds
- binding [2]: binds

Molecule: Snu114 (from UniProt P36048 1-1008)
- binding [1]: binds
- binding [2]: binds

Molecule: PRP38 (from UniProt Q00723 1-242)
- binding [1]: binds
- binding [2]: binds

Molecule: SMF (from UniProt P54999 1-86)
- binding [1]: binds
- binding [2]: binds

Molecule: LEA1 (from UniProt Q08963 1-238)
- binding [1]: binds
- binding [2]: binds

Molecule: SPP381 (from UniProt P38282 1-291)
- binding [1]: binds
- binding [2]: binds

Molecule: CEF1 (from UniProt Q03654 1-590)
- binding [1]: binds
- binding [2]: binds

B1: SMD2 (protein, UniProt Q06217 1-110)
chain: MSSQIIDRPKHELSRAELEELEEFEFKHGPMSLINDAMVTRTPVIISLRNNHKIIARVKAFDRHCNMVLENVKELWTEKKGKNVINRERFISKLFLRGDSVIVVLKTPVE
- binding [1]: binds
- binding [2]: binds

B2: SMD3 (protein, UniProt P43321 1-101)
chain: MTMNGIPVKLLNEAQGHIVSLELTTGATYRGKLVESEDSMNVQLRDVIATEPQGAVTHMDQIFVRGSQIKFIVVPDLLKNAPLFKKNSSRPMPPIRGPKRR
- binding [1]: binds
- binding [2]: binds

B3: SME (protein, UniProt Q12330 1-94)
chain: MSNKVKTKAMVPPINCIFNFLQQQTPVTIWLFEQIGIRIKGKIVGFDEFMNVVIDEAVEIPVNSADGKEDVEKGTPLGKILLKGDNITLITSAD
- binding [1]: binds
- binding [2]: binds

B4: SMG (protein, UniProt P40204 1-77)
chain: MVSTPELKKYMDKKILLNINGSRKVAGILRGYDIFLNVVLDDAMEINGEDPANNHQLGLQTVIRGNSIISLEALDAI
- binding [1]: binds
- binding [2]: binds

B5: LSM2 (protein, UniProt P38203 1-95)
chain: MLFFSFFKTLVDQEVVVELKNDIEIKGTLQSVDQFLNLKLDNISCTDEKKYPHLGSVRNIFIRGSTVRYVYLNKNMVDTNLLQDATRREVMTERK
- binding [1]: binds
- binding [2]: binds

B6: LSM3 (protein, UniProt P57743 1-89)
chain: METPLDLLKLNLDERVYIKLRGARTLVGTLQAFDSHCNIVLSDAVETIYQLNNEELSESERRCEMVFIRGDTVTLISTPSEDDDGAVEI
- binding [1]: binds
- binding [2]: binds

B7: LSM4 (protein, UniProt P40070 1-187)
chain: MLPLYLLTNAKGQQMQIELKNGEIIQGILTNVDNWMNLTLSNVTEYSEESAINSEDNAESSKAVKLNEIYIRGTFIKFIKLQDNIIDKVKQQINSNNNSNSNGPGHKRYYNNRDSNNNRGNYNRRNNNNGNSNRRPYSQNRQYNNSNSSNINNSINSINSNNQNMNNGLGGSVQHHFNSSSPQKVEF
- binding [1]: binds
- binding [2]: binds

B8: LSM5 (protein, UniProt P40089 1-93)
chain: MSLPEILPLEVIDKTINQKVLIVLQSNREFEGTLVGFDDFVNVILEDAVEWLIDPEDESRNEKVMQHHGRMLLSGNNIAILVPGGKKTPTEAL
- binding [1]: binds
- binding [2]: binds

B9: LSM6 (protein, UniProt Q06406 1-86)
chain: MSGKASTEGSVTTEFLSDIIGKTVNVKLASGLLYSGRLESIDGFMNVALSSATEHYESNNNKLLNKFNSDVFLRGTQVMYISEQKI
- binding [1]: binds
- binding [2]: binds

B10: LSM7 (protein, UniProt P53905 1-115)
chain: MHQQHSKSENKPQQQRKKFEGPKREAILDLAKYKDSKIRVKLMGGKLVIGVLKGYDQLMNLVLDDTVEYMSNPDDENNTELISKNARKLGLTVIRGTILVSLSSAEGSDVLYMQK
- binding [1]: binds
- binding [2]: binds

B11: LSM8 (protein, UniProt P47093 1-109)
chain: MSATLKDYLNKRVVIIKVDGECLIASLNGFDKNTNLFITNVFNRISKEFICKAQLLRGSEIALVGLIDAENDDSLAPIDEKKVPMLKDTKNKIENEHVIWEKVYESKTK
- binding [1]: binds
- binding [2]: binds

B12: DIB1 (protein, UniProt Q06819 1-143)
chain: MASVLLPQLRTGWHVDQAIVTETKRLVVIRFGRKNDRQCMIMDELLSSIAERVRNFAVIYLCDIDEVSDFDEMYELTDPMTVMFFYHNKHMMCDFGTGNNNKLNFIVDDKQEMIDILETIFRGARKNKGLVVSPYDYNHKRVS
- binding [1]: binds
- binding [2]: binds

B13: PRP31 (protein, UniProt P49704 1-494)
chain: MSSEEDYFDELEYDLADEVNEEKEDIQTKKLTTVNCQTEKFNPFEILPESIELFRTLALISPDRLSLSETAQILPKIVDLKRILQQQEIDFIKLLPFFNEIIPLIKSNIKLMHNFLISLYSRRFPELSSLIPSPLQYSKVISILENENYSKNESDELFFHLENKAKLTREQILVLTMSMKTSFKNKEPLDIKTRTQILEANSILENLWKLQEDIGQYIASKISIIAPNVCFLVGPEIAAQLIAHAGGVLEFSRIPSCNIASIGKNKHLSHELHTLESGVRQEGYLFASDMIQKFPVSVHKQMLRMLCAKVSLAARVDAGQKNGDRNTVLAHKWKAELSKKARKLSEAPSISETKALPIPEDQPKKKRAGRKFRKYKEKFRLSHVRQLQNRMEFGKQEQTVLDSYGEEVGLGMSNTSLQQAVGATSGSRRSAGNQAKLTKVMKHRISEANQQADEFLISLGHNTEQPNLSPEMVQMHKKQHTNPEEETNWFSGHG
- binding [1]: binds
- binding [2]: binds

B14: PRP3 (protein, UniProt Q03338 1-469)
chain: MPPRNTYEKGNPKRQNSPYYKPSFLRREETTNDEEKFQGHGLKTELHSALKSSNLNLIRRTYQTGENPYLSDPHDRGSSSRFNRRYERGLKFYQKGEISKRIAQERTLQKQQEEEELKRKLKQEEDEKDKRKLIESGDLPNLELHEDKFLLDLSKFKIYYDNNHGYEWWDTAYLDEKGELMEKYDMNGTSPAEEKLAEDIDEVDDDDDDEHPSIRYVAHPLPEKINEAKVSIKAYLTQHERKRLRRNRRKMAREAREIKIKLGLLPKPEPKVKLSNMMSVFENDQNITDPTAWEKVVKDQVDLRKRKHLEENERRHEDAIKRRKEAVNMNVEKPTVYHCKVFQFKNLQNPKIRFKLKMNSKELSLKGLCLRIRDDGPGIIIVVGNEKSCKFYENLVMKRIKWNEDFELHTNTGDIKMDMHNNSISKTWEGYLQDCKFKGWFMKVCNDQDSLLRTLGQFDSEHFYSPVQT
- binding [1]: binds
- binding [2]: binds

B15: SNU66 (protein, UniProt Q12420 1-587)
chain: MNKTENLSIEETNEIREKLGMKPIPVFQEKNTDHKESLSIEETNELRASLGLKLIPPQQNFNSSPPNVHNTSKIDELREKITKFQKKANAPLRMAHLLEETNVNDDSSWLENMDAIPSSHESKRSSTLPRKGATKEDENIDLHNVQVSYNIEALSPKKDTILTLKESSIFDDTDSTEVLENVKAAEENADREKLRLRQMNKDRRQKKKILNVSSLDIEEEEEGEKHSITTTHLIIGAEQGVMKAPNTISAKPPTGKVKVNFDSANNMSDEDGGDFKPLKIKKRKIKDPRSTKARKSKITDKMEIVKLVDEDESLSWMEEEQPVTIINPRTSSNNELKGPEDLAREIEKARDEEKRRTESILKMREISNSIVVDEKVTFLNTLDTSLSERSATENKVKVHGEGEKNIGDVTNGHTKEGSGNNTLTEAVNNEPNYEGDAENAPNFFSGLASTLGYLRKKSVFTTGDVDLKPGKDVNNSESLRRDVRNKEHTGTGTYTKDKLHGLEQFTSSDSSNANTHSKRQDHYDPDIKLVYRDEKGNRLTTKEAYKKLSQKFHGTKSNKKKRAKMKSRIEARKNTPENGSLFEFDDN
- binding [1]: binds
- binding [2]: binds

B16: SMB (protein, UniProt P40018 1-196)
chain: MSKIQVAHSSRLANLIDYKLRVLTQDGRVYIGQLMAFDKHMNLVLNECIEERVPKTQLDKLRPRKDSKDGTTLNIKVEKRVLGLTILRGEQILSTVVEDKPLLSKKERLVRDKKEKKQAQKQTKLRKEKEKKPGKIAKPNTANAKHTSSNSREIAQPSSSRYNGGNDNIGANRSRFNNEAPPQTRKFQPPPGFKRK
- binding [1]: binds
- binding [2]: binds

B17: PRP9 (protein, UniProt P19736 1-530)
chain: MNLLETRRSLLEEMEIIENAIAERIQRNPELYYHYIQESSKVFPDTKLPRSSLIAENKIYKFKKVKRKRKQIILQQHEINIFLRDYQEKQQTFNKINRPEETQEDDKDLPNFERKLQQLEKELKNEDENFELDINSKKDKYALFSSSSDPSRRTNILSDRARDLDLNEIFTRDEQYGEYMELEQFHSLWLNVIKRGDCSLLQFLDILELFLDDEKYLLTPPMDRKNDRYMAFLLKLSKYVETFFFKSYALLDAAAVENLIKSDFEHSYCRGSLRSEAKGIYCPFCSRWFKTSSVFESHLVGKIHKKNESKRRNFVYSEYKLHRYLKYLNDEFSRTRSFVERKLAFTANERMAEMDILTQKYEAPAYDSTEKEGAEQVDGEQRDGQLQEEHLSGKSFDMPLGPDGLPMPYWLYKLHGLDREYRCEICSNKVYNGRRTFERHFNEERHIYHLRCLGIEPSSVFKGITKIKEAQELWKNMQGQSQLTSIAAVPPKPNPSQLKVPTELELEEEDEEGNVMSKKVYDELKKQGLV
- binding [1]: binds
- binding [2]: binds

B18: SMD1 (protein, UniProt Q02260 1-146)
chain: MKLVNFLKKLRNEQVTIELKNGTTVWGTLQSVSPQMNAILTDVKLTLPQPRLNKLNSNGIAMASLYLTGGQQPTASDNIASLQYINIRGNTIRQIILPDSLNLDSLLVDQKQLNSLRRSGQIANDPSKKRRRDFGAPANKRPRRGL
- binding [1]: binds
- binding [2]: binds
